PubChem BioAssay AID652272, Drosophila RNAi Screening Center, 2013
The screen tested about 21,000 reagents; this is an unselected part of those that have a named target and a result. Over the whole deposit, 503 (2.4%) got an active call. 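Raw plate light values, not normalised; calls rest on replicate z-scores that were not deposited; hits include reporter decreases as well as increases.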 The numbers tell different reagents against one gene apart. Names joined by + are all predicted targets of the reagent. Not given: the amount of reagent, the time to read-out.

Purpose: 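Finding fly genes that regulate Hedgehog signal transduction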 (primary screen)
Cell system: Drosophila clone 8 (Cl8) cells
Reagent: long dsRNA against Drosophila genes
Read-out: 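Firefly light from a Hedgehog-responsive ptc promoter reporter and Renilla reference light, both read on a plate reader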
Reading the numbers: firefly Hh reporter signal: higher = more ptc reporter light; Renilla reference signal: higher = more Renilla control light
Hit rule: 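Called a hit if the two-replicate mean z-score lies below -2 or above +3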
Meaning of the calls: active = hit: reporter lowered or raised; inactive = not a hit

Silencing of CG2247 (GeneID 32111) came out at: firefly Hh reporter signal, replicate 1 = 1.36e5; firefly Hh reporter signal, replicate 2 = 73056; Renilla reference signal, replicate 1 = 3095; Renilla reference signal, replicate 2 = 2020; inactive. For ncd (GeneID 43517), the values are firefly Hh reporter signal, replicate 1 = 66449; firefly Hh reporter signal, replicate 2 = 51760; Renilla reference signal, replicate 1 = 1707; Renilla reference signal, replicate 2 = 1671; inactive. Depletion of DNaseII (GeneID 48228) resulted in: firefly Hh reporter signal, replicate 1 = 1.18e5; firefly Hh reporter signal, replicate 2 = 66843; Renilla reference signal, replicate 1 = 4986; Renilla reference signal, replicate 2 = 2665; inactive. With knock-down of CG6209 (GeneID 36517) the results were firefly Hh reporter signal, replicate 1 = 93737; firefly Hh reporter signal, replicate 2 = 46109; Renilla reference signal, replicate 1 = 2195; Renilla reference signal, replicate 2 = 4115; inactive. CG9346 (GeneID 37381) showed firefly Hh reporter signal, replicate 1 = 1.16e5; firefly Hh reporter signal, replicate 2 = 88257; Renilla reference signal, replicate 1 = 5600; Renilla reference signal, replicate 2 = 3656; inactive. For CG42375 + CG9288, the values are firefly Hh reporter signal, replicate 1 = 2.43e5; firefly Hh reporter signal, replicate 2 = 1.66e5; Renilla reference signal, replicate 1 = 8501; Renilla reference signal, replicate 2 = 5629; inactive.

Muc26B (GeneID 50424) gave firefly Hh reporter signal, replicate 1 = 1.27e5; firefly Hh reporter signal, replicate 2 = 63506; Renilla reference signal, replicate 1 = 3504; Renilla reference signal, replicate 2 = 6546; inactive. Depletion of NijA (GeneID 39215) came out at: firefly Hh reporter signal, replicate 1 = 51522; firefly Hh reporter signal, replicate 2 = 40550; firefly Hh reporter signal, replicate 3 = 51382; Renilla reference signal, replicate 1 = 3584; Renilla reference signal, replicate 2 = 3890; inactive. Against St1 (GeneID 37742), the values are firefly Hh reporter signal, replicate 1 = 1.10e5; firefly Hh reporter signal, replicate 2 = 84135; Renilla reference signal, replicate 1 = 4240; Renilla reference signal, replicate 2 = 3368; inactive. Against Fancd2 (GeneID 2768674), the entry reads firefly Hh reporter signal, replicate 1 = 5.77e5; firefly Hh reporter signal, replicate 2 = 78907; Renilla reference signal, replicate 1 = 34652; Renilla reference signal, replicate 2 = 5960; inactive. After knock-down of RpL22 (GeneID 31022) the results were firefly Hh reporter signal, replicate 1 = 2.44e5; firefly Hh reporter signal, replicate 2 = 1.20e5; firefly Hh reporter signal, replicate 3 = 2.11e5; Renilla reference signal, replicate 1 = 1672; Renilla reference signal, replicate 2 = 5080; active. Mlp60A (GeneID 37853) scored firefly Hh reporter signal, replicate 1 = 54925; firefly Hh reporter signal, replicate 2 = 49536; Renilla reference signal, replicate 1 = 1077; Renilla reference signal, replicate 2 = 4538; inactive.

Copied from the listing (3 entries):
St1 (GeneID 37742) → firefly Hh reporter signal, replicate 1: 1.10e5; firefly Hh reporter signal, replicate 2: 84135; Renilla reference signal, replicate 1: 4240; Renilla reference signal, replicate 2: 3368; Call: inactive
Fancd2 (GeneID 2768674) → firefly Hh reporter signal, replicate 1: 5.77e5; firefly Hh reporter signal, replicate 2: 78907; Renilla reference signal, replicate 1: 34652; Renilla reference signal, replicate 2: 5960; Call: inactive
RpL22 (GeneID 31022) → firefly Hh reporter signal, replicate 1: 2.44e5; firefly Hh reporter signal, replicate 2: 1.20e5; firefly Hh reporter signal, replicate 3: 2.11e5; Renilla reference signal, replicate 1: 1672; Renilla reference signal, replicate 2: 5080; Call: active

Further entries follow.
lectin-37Db (GeneID 3346221) gave firefly Hh reporter signal, replicate 1 = 1.02e5; firefly Hh reporter signal, replicate 2 = 47880; Renilla reference signal, replicate 1 = 2836; Renilla reference signal, replicate 2 = 4629; inactive. Against CG4815 (GeneID 43360) the deposit lists firefly Hh reporter signal, replicate 1 = 1.10e5; firefly Hh reporter signal, replicate 2 = 86914; Renilla reference signal, replicate 1 = 4169; Renilla reference signal, replicate 2 = 2154; inactive. For Spf30 (GeneID 7354399), the values are firefly Hh reporter signal, replicate 1 = 66572; firefly Hh reporter signal, replicate 2 = 1.11e5; Renilla reference signal, replicate 1 = 2224; Renilla reference signal, replicate 2 = 2897; inactive. Knock-down of Rbbp5 (GeneID 40239) came out at: firefly Hh reporter signal, replicate 1 = 84433; firefly Hh reporter signal, replicate 2 = 1.03e5; Renilla reference signal, replicate 1 = 2656; Renilla reference signal, replicate 2 = 2619; inactive. For CG16781 (GeneID 31315), the values are firefly Hh reporter signal, replicate 1 = 74205; firefly Hh reporter signal, replicate 2 = 1.89e5; Renilla reference signal, replicate 1 = 2080; Renilla reference signal, replicate 2 = 6441; inactive. After knock-down of CG13376 (GeneID 3346142), the screen gave firefly Hh reporter signal, replicate 1 = 1.43e5; firefly Hh reporter signal, replicate 2 = 3.33e5; Renilla reference signal, replicate 1 = 3970; Renilla reference signal, replicate 2 = 12392; inactive.

For Cndp2 (GeneID 35507), the values are firefly Hh reporter signal, replicate 1 = 61281; firefly Hh reporter signal, replicate 2 = 77051; Renilla reference signal, replicate 1 = 1653; Renilla reference signal, replicate 2 = 5189; inactive. With knock-down of TFAM (GeneID 42433), the record shows firefly Hh reporter signal, replicate 1 = 93024; firefly Hh reporter signal, replicate 2 = 74944; Renilla reference signal, replicate 1 = 3501; Renilla reference signal, replicate 2 = 2578; inactive. Knock-down of MICU3 (GeneID 42357) #1 gave: firefly Hh reporter signal, replicate 1 = 50001; firefly Hh reporter signal, replicate 2 = 2.49e5; Renilla reference signal, replicate 1 = 10468; Renilla reference signal, replicate 2 = 6342; inactive. After knock-down of MICU3 (GeneID 42357) #2 the results were firefly Hh reporter signal, replicate 1 = 1.05e5; firefly Hh reporter signal, replicate 2 = 97015; Renilla reference signal, replicate 1 = 4928; Renilla reference signal, replicate 2 = 3954; inactive. For bw (GeneID 37724) #1 the deposit lists firefly Hh reporter signal, replicate 1 = 1.40e5; firefly Hh reporter signal, replicate 2 = 2.16e5; Renilla reference signal, replicate 1 = 3187; Renilla reference signal, replicate 2 = 9680; inactive. bw (GeneID 37724) #2 showed firefly Hh reporter signal, replicate 1 = 86096; firefly Hh reporter signal, replicate 2 = 58301; Renilla reference signal, replicate 1 = 3164; Renilla reference signal, replicate 2 = 2395; inactive.

Silencing of dmt (GeneID 41180) resulted in: firefly Hh reporter signal, replicate 1 = 63527; firefly Hh reporter signal, replicate 2 = 1.21e5; Renilla reference signal, replicate 1 = 2312; Renilla reference signal, replicate 2 = 3548; inactive. For ms(3)K81 (GeneID 43232), the values are firefly Hh reporter signal, replicate 1 = 99739; firefly Hh reporter signal, replicate 2 = 1.71e5; Renilla reference signal, replicate 1 = 3905; Renilla reference signal, replicate 2 = 4912; inactive. Knock-down of Frl (GeneID 39561) #1 gave: firefly Hh reporter signal, replicate 1 = 2.43e5; Renilla reference signal, replicate 1 = 6077; inactive. After knock-down of Frl (GeneID 39561) #2 the results were firefly Hh reporter signal, replicate 1 = 1.02e5; Renilla reference signal, replicate 1 = 1812; Renilla reference signal, replicate 2 = 3268; inactive. Silencing of Frl (GeneID 39561) #3 came out at: firefly Hh reporter signal, replicate 1 = 5.31e5; firefly Hh reporter signal, replicate 2 = 1.28e5; firefly Hh reporter signal, replicate 3 = 87590; Renilla reference signal, replicate 1 = 6932; Renilla reference signal, replicate 2 = 1946; inactive.
